Assay results taken from paper PMC5445283, “Selection and characterization of alanine racemase inhibitors against Aeromonas hydrophila” (BMC Microbiology, 2017).

Columns and labels:
A. hydrophila Δalr-2 = assay type: cell-based, Aeromonas hydrophila; settings: relative to MIC against A. hydrophila
Experimental: A. hydrophila HBNUAh01 isolated from infected Paralichthys olivaceus and an A. hydrophila alr-2 knockout mutant were used in this study. Escherichia coli BL-21(DE3) cells were used for protein expression. The pET-25b-alr2 plasmid was used for protein expression. The A. hydrophila and E. coli strains were cultured in Luria-Bertani (LB) medium at 30 °C and 37 °C, respectively. For plasmid selection, 0.5 mmol/l ampicillin (AMP, Sigma–Aldrich Inc., USA) was added to the LB medium for experiments with E. coli.
A. hydrophila was cultured for 18 h, washed with PBS (pH 7.2), and adjusted to an OD600 value of 0.5. Next, the culture was diluted tenfold five times, and aliquots were spread on LB agar in triplicate to determine the number of colony-forming units (CFU)/ml.
The minimum inhibitory concentration (MIC) of the chemical compounds against A. hydrophila was determined using the microdilution method in accordance with the guidelines of the Clinical and Laboratory Standards Institute, document M31-A3 [16], following the method described by Dal Pozzo et al.. Compounds were diluted in DMSO at concentrations of 80, 40, 20, or 10 μg/ml. Appropriate controls were included in all tests. DCS is a naturally occurring antibacterial compound that targets alanine racemase involved in peptidoglycan synthesis. […]

HeLa cells = assay type: cell-based; settings: HeLa TC50 / MIC against A. hydrophila; NC: non calculable
Experimental: This assay was performed in a 96-well plate format and used HeLa cells. The cell viability was determined using 3-(4,5-dimethyl-2-thiazole)-2,5-diphenyl-2H-tetrazolium bromide (MTT, Sigma-Aldrich). Cells were seeded in culture medium in microplates (4000 cells/well) and incubated at 37 °C for 24 h before drug treatments. […] The cells were exposed to the compounds for 48 h. At the end of the incubation, the cells were exposed to MTT (0.5 mg/ml) at 37 °C for 4 h. The reduced crystals were dissolved in DMSO, and absorbance was detected at 490 nm. The […] were set as zero absorbance. The percentage of cell survival was calculated using the background-corrected absorbance as follows: Cell survival (%) = (ODexperiment/ODcontrol) × 100. The data represent the mean and standard deviation from triplicate determination.

O=C1C=C2C(=CCOC2O)O1 (stereo not shown) [Compound I-2, Patulin]
increase in MIC against A. hydrophila Δalr-2 (A. hydrophila Δalr-2): 4 fold

O=C(O)Cc1cc(O)ccc1O [Compound I-3, Homogentisic acid]
Ti = TC50/MIC (therapeutic index) (HeLa cells): 1.3

Oc1ccc(O)cc1 [Compound I-6, Hydroquinone]
Ti = TC50/MIC (therapeutic index) (HeLa cells): 1.54

N[C@@H]1CON=C1O [DCS, D-cycloserine, reference compound]
increase in MIC against A. hydrophila Δalr-2 (A. hydrophila Δalr-2): 2 fold
